Reference: US8093232B2, “2α-methyl-19-nor-(20S)-1α-hydroxy-bishomopregnacalciferol and its uses” (Wisconsin Alumni Research Foundation, priority 2004, dated 2012)

Test system: 24-hydroxylase (24 Ohase) gene promoter
Experiment: In vitro transcription assay (24-hydroxylase promoter luciferase reporter in ROS 17/2.8 bone cells)
Assay type: cell-based
Details: ROS 17/2.8 cells, 24-OHase promoter-luciferase, 16 h; FIG. 3; read-out: EC50, transcriptional activity in bone cells
Protocol: In Vitro Transcription Assay
Transcription activity was measured in ROS 17/2.8 (bone) cells that were stably transfected with a 24-hydroxylase (24 Ohase) gene promoter upstream of a luciferase reporter gene (Arbour et al., 1998). Cells were given a range of doses. Sixteen hours after dosing the cells were harvested and luciferase activities were measured using a luminometer.
RLU=relative luciferase units.

C=C1/C(=C\C=C2/CCC[C@]3(C)[C@@H]([C@H](C)CCCC(C)(C)O)CC[C@@H]23)C[C@@H](O)C[C@@H]1O [1,25(OH)2D3, 1α,25-dihydroxyvitamin D3, reference compound]
EC50: 2.9 nM
